{
  "source": "patent US20110257233A1",
  "about": "“BENZOISOTHIAZOLONES AS INHIBITORS OF PHOSPHOMANNOSE ISOMERASE” (Sanford-Burnham Medical Research Institute, priority 2010, published 2011)",
  "biological_target": "T1, phosphomannose isomerase (PMI) (Homo sapiens, UniProt P34949)",
  "T1 sequence (P34949 1-423)": "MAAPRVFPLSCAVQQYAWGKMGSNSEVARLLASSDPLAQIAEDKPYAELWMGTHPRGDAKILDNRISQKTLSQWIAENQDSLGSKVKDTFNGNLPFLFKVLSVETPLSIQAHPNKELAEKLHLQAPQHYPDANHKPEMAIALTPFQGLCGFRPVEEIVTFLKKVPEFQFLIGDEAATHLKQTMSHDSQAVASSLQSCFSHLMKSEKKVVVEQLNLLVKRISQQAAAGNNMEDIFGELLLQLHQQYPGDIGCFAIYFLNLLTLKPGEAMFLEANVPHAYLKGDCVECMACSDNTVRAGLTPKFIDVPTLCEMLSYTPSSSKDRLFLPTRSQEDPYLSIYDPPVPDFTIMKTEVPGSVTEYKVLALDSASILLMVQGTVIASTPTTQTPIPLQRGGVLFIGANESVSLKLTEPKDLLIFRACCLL",
  "test": "PMI enzyme inhibition assay",
  "type": "biochemical",
  "conditions": "tested up to 10 μM in the enzyme assay",
  "note": "Some results were stated once for a whole list of compounds, not compound by compound. For at least one compound, name, drawing or mass did not settle the structure.",
  "data": [
    {"smiles": "O=c1c2ccccc2[nH]n1-c1ccccc1", "note": "[Compound 26, 2-Phenyl-1H-2-hydroindazol-3-one]", "values": [
      {"measurement": "PMI activity", "result": "abrogated all PMI activity"}
    ]}
  ]
}
